No constants are given. Whether binding was seen depends on the method and setting. In cells and extracts the contact can be indirect. Here binding means that the protein was enriched with, or labelled near, the bait; the list need not be complete. Sequences can lack the tags named with a protein.
Target: T1, Lrmp-Flag (mouse) (UniProt Q60664)
T1 sequence: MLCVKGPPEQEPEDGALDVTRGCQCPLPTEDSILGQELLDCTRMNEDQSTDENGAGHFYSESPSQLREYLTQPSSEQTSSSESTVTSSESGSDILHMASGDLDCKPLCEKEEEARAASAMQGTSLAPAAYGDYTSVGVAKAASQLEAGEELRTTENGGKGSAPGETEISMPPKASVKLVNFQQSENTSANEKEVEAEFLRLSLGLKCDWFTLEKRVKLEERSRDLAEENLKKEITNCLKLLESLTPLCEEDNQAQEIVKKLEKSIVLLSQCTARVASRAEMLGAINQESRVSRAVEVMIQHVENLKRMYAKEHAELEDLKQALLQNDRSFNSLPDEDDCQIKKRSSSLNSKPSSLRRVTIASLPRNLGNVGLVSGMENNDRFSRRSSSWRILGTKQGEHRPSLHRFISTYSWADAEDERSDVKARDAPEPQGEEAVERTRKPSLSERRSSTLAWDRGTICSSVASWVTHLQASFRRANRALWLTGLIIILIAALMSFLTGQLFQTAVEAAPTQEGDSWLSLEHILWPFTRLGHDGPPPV
Assay: affinity purification with mass spectrometry; WT MEFs transfected with Lrmp-Flag alone or together with ITPR2-HA; Lrmp-Flag pulled down with anti-Flag beads, eluted with 3xFlag peptide, LC-MS/MS

Sequences of proteins named here, by UniProt entry; tags and fusion partners are left off.
UniProt Q9Z329: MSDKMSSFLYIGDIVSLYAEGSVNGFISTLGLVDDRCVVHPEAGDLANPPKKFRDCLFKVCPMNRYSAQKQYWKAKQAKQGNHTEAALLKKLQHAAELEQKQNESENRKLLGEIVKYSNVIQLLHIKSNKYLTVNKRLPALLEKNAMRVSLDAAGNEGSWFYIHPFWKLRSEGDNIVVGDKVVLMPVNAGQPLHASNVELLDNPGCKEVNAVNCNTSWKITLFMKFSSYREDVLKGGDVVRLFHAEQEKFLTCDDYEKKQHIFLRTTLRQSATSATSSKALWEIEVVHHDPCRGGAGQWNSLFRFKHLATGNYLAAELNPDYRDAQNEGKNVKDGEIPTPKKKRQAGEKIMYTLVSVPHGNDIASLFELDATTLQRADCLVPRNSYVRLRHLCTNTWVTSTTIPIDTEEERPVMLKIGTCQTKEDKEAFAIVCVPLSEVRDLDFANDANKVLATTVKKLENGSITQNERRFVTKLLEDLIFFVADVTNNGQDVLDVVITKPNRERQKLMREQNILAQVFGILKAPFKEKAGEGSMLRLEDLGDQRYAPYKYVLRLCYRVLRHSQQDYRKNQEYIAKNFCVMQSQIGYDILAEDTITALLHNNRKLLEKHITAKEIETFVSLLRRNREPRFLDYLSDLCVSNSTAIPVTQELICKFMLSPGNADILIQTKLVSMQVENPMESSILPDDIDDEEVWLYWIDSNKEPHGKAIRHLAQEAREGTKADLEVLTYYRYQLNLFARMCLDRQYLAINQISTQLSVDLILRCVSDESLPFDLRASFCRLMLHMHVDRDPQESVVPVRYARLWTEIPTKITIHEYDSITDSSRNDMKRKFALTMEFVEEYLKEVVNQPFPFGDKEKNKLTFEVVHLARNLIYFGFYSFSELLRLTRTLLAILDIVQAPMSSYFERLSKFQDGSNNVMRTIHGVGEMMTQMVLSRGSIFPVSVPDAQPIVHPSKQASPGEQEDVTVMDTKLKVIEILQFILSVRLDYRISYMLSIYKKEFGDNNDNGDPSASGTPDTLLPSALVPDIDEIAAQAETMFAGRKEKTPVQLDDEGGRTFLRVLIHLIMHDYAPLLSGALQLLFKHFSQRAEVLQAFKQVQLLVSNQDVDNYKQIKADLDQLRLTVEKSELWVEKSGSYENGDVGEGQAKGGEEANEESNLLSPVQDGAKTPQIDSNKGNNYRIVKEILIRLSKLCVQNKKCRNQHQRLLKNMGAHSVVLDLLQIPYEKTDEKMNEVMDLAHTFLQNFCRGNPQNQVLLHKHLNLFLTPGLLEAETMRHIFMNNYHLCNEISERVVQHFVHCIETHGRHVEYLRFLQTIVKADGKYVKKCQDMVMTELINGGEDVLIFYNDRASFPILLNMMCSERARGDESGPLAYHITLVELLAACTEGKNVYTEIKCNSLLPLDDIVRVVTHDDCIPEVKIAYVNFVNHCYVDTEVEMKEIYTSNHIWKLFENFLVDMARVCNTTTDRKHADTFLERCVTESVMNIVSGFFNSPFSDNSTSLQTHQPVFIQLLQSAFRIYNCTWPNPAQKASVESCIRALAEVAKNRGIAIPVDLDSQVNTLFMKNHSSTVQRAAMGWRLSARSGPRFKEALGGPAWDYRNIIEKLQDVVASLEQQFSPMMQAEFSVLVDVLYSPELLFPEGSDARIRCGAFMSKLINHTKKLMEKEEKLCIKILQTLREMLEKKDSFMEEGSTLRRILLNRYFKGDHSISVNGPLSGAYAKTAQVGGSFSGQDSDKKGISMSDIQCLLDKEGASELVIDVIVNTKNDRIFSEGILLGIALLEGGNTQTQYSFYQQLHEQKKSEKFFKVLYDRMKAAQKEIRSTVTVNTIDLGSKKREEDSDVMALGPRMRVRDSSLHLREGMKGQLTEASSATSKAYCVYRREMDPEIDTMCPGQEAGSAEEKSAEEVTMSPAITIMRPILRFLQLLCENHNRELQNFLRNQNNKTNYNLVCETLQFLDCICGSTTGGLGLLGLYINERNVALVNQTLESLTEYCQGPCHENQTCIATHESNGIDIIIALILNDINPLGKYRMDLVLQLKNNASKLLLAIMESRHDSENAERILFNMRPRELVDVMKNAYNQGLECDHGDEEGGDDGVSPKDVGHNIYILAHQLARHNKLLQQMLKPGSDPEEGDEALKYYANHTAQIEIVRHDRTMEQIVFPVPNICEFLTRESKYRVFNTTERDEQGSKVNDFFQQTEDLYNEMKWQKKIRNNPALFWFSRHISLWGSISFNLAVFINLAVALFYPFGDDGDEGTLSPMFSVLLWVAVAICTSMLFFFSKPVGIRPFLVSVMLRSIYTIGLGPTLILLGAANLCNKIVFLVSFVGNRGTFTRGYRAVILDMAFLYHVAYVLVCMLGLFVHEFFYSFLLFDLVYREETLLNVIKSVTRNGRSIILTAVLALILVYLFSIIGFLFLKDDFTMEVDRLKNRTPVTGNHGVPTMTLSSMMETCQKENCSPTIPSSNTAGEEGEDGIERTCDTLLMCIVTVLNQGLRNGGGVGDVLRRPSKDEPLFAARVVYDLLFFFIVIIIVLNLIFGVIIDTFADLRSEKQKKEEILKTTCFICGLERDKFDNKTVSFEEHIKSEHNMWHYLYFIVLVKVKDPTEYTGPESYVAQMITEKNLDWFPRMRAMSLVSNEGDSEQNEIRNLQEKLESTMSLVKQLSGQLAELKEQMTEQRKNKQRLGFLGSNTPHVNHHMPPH
UniProt P11881: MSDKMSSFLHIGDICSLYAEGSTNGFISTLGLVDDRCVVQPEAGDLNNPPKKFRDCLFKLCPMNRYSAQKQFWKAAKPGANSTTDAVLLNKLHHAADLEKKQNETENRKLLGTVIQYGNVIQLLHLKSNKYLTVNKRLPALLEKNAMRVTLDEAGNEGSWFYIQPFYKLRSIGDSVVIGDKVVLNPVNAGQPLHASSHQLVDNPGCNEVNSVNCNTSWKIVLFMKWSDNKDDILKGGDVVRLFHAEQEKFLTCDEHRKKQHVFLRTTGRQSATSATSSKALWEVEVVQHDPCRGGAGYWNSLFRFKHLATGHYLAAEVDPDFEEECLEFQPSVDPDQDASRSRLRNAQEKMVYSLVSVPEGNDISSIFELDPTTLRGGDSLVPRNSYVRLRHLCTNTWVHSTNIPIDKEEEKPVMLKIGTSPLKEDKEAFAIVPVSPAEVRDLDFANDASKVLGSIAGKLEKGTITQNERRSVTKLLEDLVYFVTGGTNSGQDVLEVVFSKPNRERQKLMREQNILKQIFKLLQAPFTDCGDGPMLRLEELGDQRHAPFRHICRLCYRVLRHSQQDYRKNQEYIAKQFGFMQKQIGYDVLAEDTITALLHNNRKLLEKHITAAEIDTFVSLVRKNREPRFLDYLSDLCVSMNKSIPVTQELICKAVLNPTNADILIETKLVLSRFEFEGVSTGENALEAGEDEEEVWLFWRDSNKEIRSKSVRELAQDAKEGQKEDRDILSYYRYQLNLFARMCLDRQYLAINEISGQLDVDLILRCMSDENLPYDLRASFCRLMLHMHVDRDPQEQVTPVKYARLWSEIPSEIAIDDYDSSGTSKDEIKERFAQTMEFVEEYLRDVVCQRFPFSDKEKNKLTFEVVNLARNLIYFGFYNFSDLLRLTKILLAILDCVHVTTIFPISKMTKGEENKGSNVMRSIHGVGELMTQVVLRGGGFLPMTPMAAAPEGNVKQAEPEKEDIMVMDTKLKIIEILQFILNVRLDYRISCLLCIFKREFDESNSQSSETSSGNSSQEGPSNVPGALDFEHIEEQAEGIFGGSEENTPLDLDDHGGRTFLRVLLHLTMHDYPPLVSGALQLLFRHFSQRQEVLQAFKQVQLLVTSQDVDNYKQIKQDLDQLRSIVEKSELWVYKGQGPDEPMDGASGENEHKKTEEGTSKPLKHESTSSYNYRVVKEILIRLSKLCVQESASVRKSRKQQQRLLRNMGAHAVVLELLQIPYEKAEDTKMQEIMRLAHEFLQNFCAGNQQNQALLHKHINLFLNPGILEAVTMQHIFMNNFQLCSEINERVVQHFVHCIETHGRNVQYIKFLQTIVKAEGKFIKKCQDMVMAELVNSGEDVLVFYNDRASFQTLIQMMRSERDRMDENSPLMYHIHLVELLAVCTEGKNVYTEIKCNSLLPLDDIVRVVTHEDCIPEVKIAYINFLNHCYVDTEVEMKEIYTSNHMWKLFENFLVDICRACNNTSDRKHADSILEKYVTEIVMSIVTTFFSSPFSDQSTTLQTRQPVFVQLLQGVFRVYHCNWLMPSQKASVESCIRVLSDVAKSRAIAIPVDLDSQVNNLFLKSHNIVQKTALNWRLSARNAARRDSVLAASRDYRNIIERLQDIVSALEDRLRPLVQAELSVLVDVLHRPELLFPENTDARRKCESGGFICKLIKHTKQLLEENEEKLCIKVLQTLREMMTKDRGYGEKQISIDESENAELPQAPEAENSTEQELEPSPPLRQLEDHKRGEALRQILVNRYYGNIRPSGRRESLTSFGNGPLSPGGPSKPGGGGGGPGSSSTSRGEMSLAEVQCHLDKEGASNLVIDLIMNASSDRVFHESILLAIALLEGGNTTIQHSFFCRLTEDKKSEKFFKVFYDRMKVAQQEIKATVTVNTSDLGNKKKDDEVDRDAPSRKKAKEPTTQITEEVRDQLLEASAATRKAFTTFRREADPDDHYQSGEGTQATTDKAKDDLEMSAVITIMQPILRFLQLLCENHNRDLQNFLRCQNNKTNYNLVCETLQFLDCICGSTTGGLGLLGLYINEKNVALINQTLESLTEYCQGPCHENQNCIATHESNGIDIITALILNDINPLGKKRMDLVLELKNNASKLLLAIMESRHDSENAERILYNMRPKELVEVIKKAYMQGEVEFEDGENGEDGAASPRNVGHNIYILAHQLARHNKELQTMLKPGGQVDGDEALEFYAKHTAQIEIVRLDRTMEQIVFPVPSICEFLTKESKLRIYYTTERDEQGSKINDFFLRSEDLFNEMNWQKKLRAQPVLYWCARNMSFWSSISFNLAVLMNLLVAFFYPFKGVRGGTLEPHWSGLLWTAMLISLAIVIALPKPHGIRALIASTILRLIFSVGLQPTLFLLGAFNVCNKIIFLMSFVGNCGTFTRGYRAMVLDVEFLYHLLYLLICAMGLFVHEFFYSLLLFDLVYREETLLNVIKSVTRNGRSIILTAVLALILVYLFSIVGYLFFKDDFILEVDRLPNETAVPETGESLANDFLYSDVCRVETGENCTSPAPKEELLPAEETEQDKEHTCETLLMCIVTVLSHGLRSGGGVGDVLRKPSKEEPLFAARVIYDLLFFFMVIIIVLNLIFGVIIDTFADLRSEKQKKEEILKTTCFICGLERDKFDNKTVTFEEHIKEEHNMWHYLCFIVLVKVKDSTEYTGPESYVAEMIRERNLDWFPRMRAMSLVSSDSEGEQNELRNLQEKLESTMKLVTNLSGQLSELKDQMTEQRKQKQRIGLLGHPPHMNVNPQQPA

binding, binds:
ITPR2 (from UniProt Q9Z329 1-2701) (receptor)
ITPR2-HA (from UniProt Q9Z329 1-2701) (receptor)
ITPR3 (from UniProt P70227 1-2670) (receptor)
ITPR1 (from UniProt P11881 1-2749) (receptor)
